The subject of one series is Malonaldehyde (MDA). As to conditions: 5 mg/kg, compared to scopolamine-treated group.
A further series can be described thus: in vitro. The following applies: pig, PAMPA, pH 7.4. On the technique in general: In PAMPA a lipid-coated filter parts donor from acceptor wells.

The results in this text go back to article PMC11044217 (ACS Omega, 2024).

In general, Papp refers to the rate of passage across a membrane or cell layer, normalised by area and donor concentration. Low readings indicate slow passage, high ones fast passage.

With `COc1cc2c(cc1OC)C(=O)C(CC1CCN(Cc3ccccc3)CC1)C2` (centres unmarked) [Donepezil, reference compound], the “MDA level in brain homogenate” value in the series on Malonaldehyde (MDA) is “negligible MDA levels”. In the series “in vitro”, this compound had a Papp at 18 h of 6.8 ± 0.061 ×10⁻⁶ cm/s.
